Some entries share one result that the patent states for a list of compounds.
Test system: MSNP2 uptake (macropinocytosis) in Hela cells
Test: Drug and temperature inhibition of MSNP2 uptake
Type: cell-based, human
Settings: 3 h pretreatment, 20 μg/mL FITC-labeled MSNP2 6 h

N=C(N)NC(=O)c1nc(Cl)c(N)nc1N [amiloride]
decrease of MSNP2 uptake: > 50%

From US10343903B2, “Cationic polymer coated mesoporous silica nanoparticles and uses thereof” (The Regents of the University of California, priority 2010, dated 2019)
